# Measurements as given in the supplement of paper PMC3334620.
# The full ranking holds about 33,000 sequences; the median of “E-score (-0.5 to 0.5)” is about -0.016, and the highest 2% start at about 0.3. The list shows a part of the results.
# Target: T1, Yer184c (UniProt P39961)
# T1 sequence: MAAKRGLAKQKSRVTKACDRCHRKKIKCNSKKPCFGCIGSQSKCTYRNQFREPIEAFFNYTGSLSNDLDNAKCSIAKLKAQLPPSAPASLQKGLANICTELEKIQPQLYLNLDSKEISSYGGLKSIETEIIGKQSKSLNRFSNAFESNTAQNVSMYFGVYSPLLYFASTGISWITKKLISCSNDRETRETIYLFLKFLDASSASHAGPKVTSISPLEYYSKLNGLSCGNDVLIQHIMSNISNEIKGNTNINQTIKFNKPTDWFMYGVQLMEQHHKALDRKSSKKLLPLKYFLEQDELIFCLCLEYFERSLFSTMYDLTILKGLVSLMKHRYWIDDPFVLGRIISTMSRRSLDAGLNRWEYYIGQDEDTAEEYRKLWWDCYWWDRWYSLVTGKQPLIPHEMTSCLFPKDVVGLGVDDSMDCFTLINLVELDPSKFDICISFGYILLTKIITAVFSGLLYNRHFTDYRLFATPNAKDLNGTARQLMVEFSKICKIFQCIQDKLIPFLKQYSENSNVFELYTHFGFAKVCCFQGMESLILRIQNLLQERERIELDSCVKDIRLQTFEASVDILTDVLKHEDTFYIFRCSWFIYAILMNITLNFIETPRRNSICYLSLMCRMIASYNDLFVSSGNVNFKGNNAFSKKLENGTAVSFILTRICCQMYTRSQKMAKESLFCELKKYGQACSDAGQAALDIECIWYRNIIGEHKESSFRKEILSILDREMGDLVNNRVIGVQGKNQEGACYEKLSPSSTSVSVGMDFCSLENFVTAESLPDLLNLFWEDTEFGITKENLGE
# Assay: PBM E-score (8-mer binding enrichment) (E-score (-0.5 to 0.5)); higher = stronger / more preferred TF binding
# Conditions: protein concentration: 100 nM; construct: GST-full length
# In short: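 Masliner-normalised scans of fluorescent anti-GST signal were the basis for scoring. That signal came from GST-tagged yeast transcription factors applied at about 100-200 nM to double-stranded universal all-10-mer Agilent arrays on fresh or once-stripped slides. Each ungapped eight-base word, pooled with its reverse complement, received an E-score from the Universal PBM Analysis Suite.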
row,Sequence,PBM E-score
1,AAAGCCTG,-0.111
2,GCCTCGAA,0.165
3,TAGGCCTA,0.031
4,ATAGGGAC,-0.171
5,CTGAATTC,-0.0945
6,CCTAGAAG,-0.226
7,ACTCTGGA,0.0998
8,AGGCTTCA,-0.108
9,ATGTTCCA,0.016
10,ACTGGAGG,-0.13
11,GCTACCAA,-0.0319
12,GCCGCGCC,0.0555
13,AGATAGTG,0.118
14,ACTGCGGA,0.0355
15,ACCGCGCT,0.0255
16,AGGAACGA,-0.141
17,CCGACTGC,-0.0462
18,ATCTGCAA,-0.211
19,ACTCAGCT,-0.137
20,ACTCTCGC,-0.169
21,AGATATGG,-0.157
22,AAAGCCAA,0.0154
23,CCTGTAAA,-0.0958
24,CCCTGAAA,-0.104
25,GATCGGGC,0.00638

# 2 successive records from above, for reference:
row,Sequence,PBM E-score
18,ATCTGCAA,-0.211
19,ACTCAGCT,-0.137

# Continued:

row,Sequence,PBM E-score
1,CGCGAAGA,0.173
2,CCACGAGC,0.0934
3,ACTTTTAA,0.0588
4,AGTTTCCC,-0.0163
5,ATGGGTTA,-0.0129
6,GGCCCGAA,0.188
7,AGAGAGAT,0.0462
8,CCGCTTCA,0.0485
9,CAGACTTC,-0.17
10,GCAGACAA,0.0236
11,AGCACGCC,-0.0156
12,AGGAGGTA,-0.205
13,AGACCCAC,-0.14
14,GGTCCAAA,0.0253
15,ATTTTAGA,0.0124
16,CGTAGCCA,-0.16
17,ACGCACGC,0.181
18,CAGTGCAG,-0.152
19,CTAGGTGA,-0.263
20,GCGCTTGA,0.143
21,ACTGAAGG,-0.131
22,AAACCTGA,-0.166
23,TTGGACAA,0.0264
24,CGTACCAG,-0.0638
25,AGCCGTCA,0.164

row,Sequence,PBM E-score
1,ATGTACAT,0.0621
2,AGCCACGG,-0.0761
3,AACCATGG,0.0428
4,ATGGTAAT,0.124
5,AGATCGTA,-0.235
6,CTCAACAA,0.129
7,ATTCGAGG,-0.0108
8,GATCCTAA,-0.161
9,ATCTTTGG,-0.167
10,CCAGAGGG,-0.12
11,ATATTACA,0.225
12,AATATAAA,0.272
13,AGTCTAGC,-0.191
14,GACATCCC,-0.0741
15,CGGTTGGC,0.179
16,CTTGGTAA,0.0115
17,GGCAGAAC,-0.147
18,GAATCGTC,0.0183
19,ACGTCACT,-0.0421
20,GATTTGGC,-0.187
21,CTCACTTC,-0.227
22,ATGCCCGA,-0.0802
23,AGCATAGA,0.0291
24,TAATATTA,0.381
25,ATCGCAAT,-0.0156

row,Sequence,PBM E-score
1,CCTCTCGC,-0.23
2,CCACATAA,0.0383
3,CGGCGCAA,0.178
4,AACAGTGT,-0.13
5,CGCGACAA,0.184
6,AGCCACAT,-0.0913
7,CCCATTTA,-0.0636
8,CACAAGCC,-0.0115
9,CGACGATC,0.157
10,CGAGGGCC,-0.00612
11,CAATAATC,0.0448
12,AAAGGAGG,-0.25
13,ATGATCAT,0.213
14,AGGCCGGA,0.247
15,GATACACC,0.16
16,ACGAACGT,-0.0467
17,CATAGACG,-0.0226
18,CGGAAACA,0.314
19,GAAGTCTC,-0.102
20,CGTCAAGA,-0.0776
21,TAGACCTA,-0.0542
22,CTTCTTTC,0.024
23,GCGCGAGA,0.0921
24,GCTTAAGC,-0.0896
25,CTCGGATA,0.305

row,Sequence,PBM E-score
1,TGAGGTAA,0.0222
2,ATGGGGTC,-0.125
3,CGTAAACC,-0.151
4,AGCTACTA,0.141
5,GACTTATC,-0.0267
6,CACTTGAC,-0.0817
7,CGGTCCAC,-0.0592
8,AAGAGCCG,0.277
9,GGGCACGA,-0.0329
10,GCCCCGGC,0.0665
11,ATTAGGCC,0.0212
12,ATCCCGAG,0.186
13,GAGGAATA,0.18
14,CATGTTAA,0.136
15,GCCGCGAC,-0.055
16,GGGCGACA,-0.17
17,AATCATCG,0.027
18,TAGAATGA,-0.059
19,ACCAGTCC,-0.285
20,GTACTACA,0.0564
21,ACTTTTTG,0.154
22,GCTATGCA,-0.107
23,ACATGCGG,-0.106
24,ATCGGAGG,0.00906
25,AGTGGAGG,-0.12

row,Sequence,PBM E-score
1,GTACAGGA,0.0861
2,ACTGTAAT,-0.1
3,ACGCCGTG,0.0103
4,ATTCTCAC,0.0808
5,CTAGAGCA,-0.133
6,ATCTACTC,0.0132
7,AGAGACGC,0.0313
8,CGGTTGAA,0.304
9,CTATCGCA,-0.167
10,GCCTTGTA,-0.0102
11,CGTAGGTA,0.00445
12,CCCAATCA,-0.119
13,ATGTGACA,0.033
14,ACGACTGC,-0.188
15,AAACTCAC,0.0799
16,ATAGATTG,0.0162
17,CGCCAAAG,-0.206
18,GAGCCACA,-0.166
19,CTGTGCTA,-0.119
20,TCGCGCGA,0.106
21,AGAACTAG,-0.0106
22,ATTGATCC,0.206
23,TAACGTTA,0.117
24,CGAATACC,-0.0246
25,AGATCCAA,0.0822

# Fetched one by one from the list above, six records:
row,Sequence,PBM E-score
8,CGGTTGAA,0.304
16,ATAGATTG,0.0162
18,GAGCCACA,-0.166
23,TAACGTTA,0.117
7,AGAGACGC,0.0313
10,GCCTTGTA,-0.0102

# Remaining list, next part.

row,Sequence,PBM E-score
1,CAAGTGCG,-0.0694
2,ATACCGGA,0.237
3,CGCAGAAG,0.00665
4,AGATCTCC,-0.0782
5,AGGCCGGG,0.098
6,GGGTCGAA,-0.0462
7,CATCCCGG,0.212
8,ACCTGTAG,-0.203
9,GTGGCAGA,-0.338
10,ATGTGCCG,0.18
11,ACAAGAAG,0.048
12,ATAAGAGG,0.0338
13,CCGCTTAC,-0.046
14,GAACATGA,0.00797
15,CGAAATTA,0.224
16,TTGCCAAA,0.0432
17,TACAAACA,0.203
18,AACCCTGA,-0.0461
19,CATGCCTA,-0.261
20,CCCTCGCC,-0.207
21,GCAAGGGC,-0.274
22,ATCGATTG,0.156
